The assay deals with T1, TMEM219 (death receptor), endogenous in human beta cells (human (endogenous in Blox-5)) (UniProt Q86XT9).
T1 sequence: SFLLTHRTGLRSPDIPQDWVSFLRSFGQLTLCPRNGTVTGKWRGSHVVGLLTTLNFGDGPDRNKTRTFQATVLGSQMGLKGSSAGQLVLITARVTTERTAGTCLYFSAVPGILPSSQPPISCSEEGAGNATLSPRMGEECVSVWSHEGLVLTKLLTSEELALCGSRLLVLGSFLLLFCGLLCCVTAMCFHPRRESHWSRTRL
Briefly: co-IP; Blox-5 beta cells cultured with pooled T1D serum for 16 h, treated with the cross-linker DTSSP, lysed in NP-40 buffer (50 mM Tris pH 7.4, 250 mM NaCl, 5 mM EDTA); Dynabeads Protein G with polyclonal rabbit anti-TMEM219; blot with mouse anti-IGFBP3.

These are yes or no findings as the source states them, for the method shown. In cells and extracts the contact can be indirect. Some binding calls cover weakened binding; strength is not graded here.

On to “serum IGFBP3 (of T1D patients' serum) (from UniProt P17936 28-291) (ligand)”, for which the binding result is “binds”.

These data come from publication PMC8813914, “The IGFBP3/TMEM219 pathway regulates beta cell homeostasis” (Nature Communications, 2022).
